These are yes or no findings as the source states them, for the method shown. Some results given as binding are weak or reduced against the parent protein; the word gives no strength.
Biological target: T1, variable region of RIFIN#1 (PF3D7_1254800, 165-274 aa) (P. falciparum) (UniProt Q8I4N9)
T1 sequence: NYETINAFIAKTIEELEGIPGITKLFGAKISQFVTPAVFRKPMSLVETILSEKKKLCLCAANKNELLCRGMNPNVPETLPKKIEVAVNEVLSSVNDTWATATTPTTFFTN
Experiment: ELISA

The chains behind the UniProt entries cited, without tags or fusion partners. Residues count along the entry.
UniProt Q8NHL6, residues 24-461: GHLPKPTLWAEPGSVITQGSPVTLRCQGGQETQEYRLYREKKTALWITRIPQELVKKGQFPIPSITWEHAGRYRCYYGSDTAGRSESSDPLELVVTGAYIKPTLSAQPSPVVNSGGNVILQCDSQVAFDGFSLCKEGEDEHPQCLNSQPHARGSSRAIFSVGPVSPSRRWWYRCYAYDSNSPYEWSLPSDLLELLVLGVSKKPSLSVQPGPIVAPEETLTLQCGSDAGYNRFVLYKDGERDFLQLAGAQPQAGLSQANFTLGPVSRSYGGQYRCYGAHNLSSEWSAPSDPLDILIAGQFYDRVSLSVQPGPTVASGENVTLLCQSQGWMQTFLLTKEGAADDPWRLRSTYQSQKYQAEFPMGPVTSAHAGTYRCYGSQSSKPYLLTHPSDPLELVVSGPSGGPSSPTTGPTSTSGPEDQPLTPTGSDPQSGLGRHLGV

Substance: extracellular domain (ECD) of human LILRB1 (from UniProt Q8NHL6 24-461) (receptor)
- binding: binds

Reference: doi:10.1101/2024.08.08.607148 (bioRxiv, 2024)
